Results are given in words; binding and its absence hold for the method and conditions named.
How the values were obtained:
[1] = molecular target: soluble dysferlin (residues 1-2017) (human) (UniProt O75923); test: SEC
[2] = molecular target: soluble myoferlin (residues 1-1997) (human) (UniProt Q9NZM1); test: SEC

By UniProt entry, the sequences of proteins in these tests, tags left out. Residues count along the entry.
UniProt O75923, 1-2017: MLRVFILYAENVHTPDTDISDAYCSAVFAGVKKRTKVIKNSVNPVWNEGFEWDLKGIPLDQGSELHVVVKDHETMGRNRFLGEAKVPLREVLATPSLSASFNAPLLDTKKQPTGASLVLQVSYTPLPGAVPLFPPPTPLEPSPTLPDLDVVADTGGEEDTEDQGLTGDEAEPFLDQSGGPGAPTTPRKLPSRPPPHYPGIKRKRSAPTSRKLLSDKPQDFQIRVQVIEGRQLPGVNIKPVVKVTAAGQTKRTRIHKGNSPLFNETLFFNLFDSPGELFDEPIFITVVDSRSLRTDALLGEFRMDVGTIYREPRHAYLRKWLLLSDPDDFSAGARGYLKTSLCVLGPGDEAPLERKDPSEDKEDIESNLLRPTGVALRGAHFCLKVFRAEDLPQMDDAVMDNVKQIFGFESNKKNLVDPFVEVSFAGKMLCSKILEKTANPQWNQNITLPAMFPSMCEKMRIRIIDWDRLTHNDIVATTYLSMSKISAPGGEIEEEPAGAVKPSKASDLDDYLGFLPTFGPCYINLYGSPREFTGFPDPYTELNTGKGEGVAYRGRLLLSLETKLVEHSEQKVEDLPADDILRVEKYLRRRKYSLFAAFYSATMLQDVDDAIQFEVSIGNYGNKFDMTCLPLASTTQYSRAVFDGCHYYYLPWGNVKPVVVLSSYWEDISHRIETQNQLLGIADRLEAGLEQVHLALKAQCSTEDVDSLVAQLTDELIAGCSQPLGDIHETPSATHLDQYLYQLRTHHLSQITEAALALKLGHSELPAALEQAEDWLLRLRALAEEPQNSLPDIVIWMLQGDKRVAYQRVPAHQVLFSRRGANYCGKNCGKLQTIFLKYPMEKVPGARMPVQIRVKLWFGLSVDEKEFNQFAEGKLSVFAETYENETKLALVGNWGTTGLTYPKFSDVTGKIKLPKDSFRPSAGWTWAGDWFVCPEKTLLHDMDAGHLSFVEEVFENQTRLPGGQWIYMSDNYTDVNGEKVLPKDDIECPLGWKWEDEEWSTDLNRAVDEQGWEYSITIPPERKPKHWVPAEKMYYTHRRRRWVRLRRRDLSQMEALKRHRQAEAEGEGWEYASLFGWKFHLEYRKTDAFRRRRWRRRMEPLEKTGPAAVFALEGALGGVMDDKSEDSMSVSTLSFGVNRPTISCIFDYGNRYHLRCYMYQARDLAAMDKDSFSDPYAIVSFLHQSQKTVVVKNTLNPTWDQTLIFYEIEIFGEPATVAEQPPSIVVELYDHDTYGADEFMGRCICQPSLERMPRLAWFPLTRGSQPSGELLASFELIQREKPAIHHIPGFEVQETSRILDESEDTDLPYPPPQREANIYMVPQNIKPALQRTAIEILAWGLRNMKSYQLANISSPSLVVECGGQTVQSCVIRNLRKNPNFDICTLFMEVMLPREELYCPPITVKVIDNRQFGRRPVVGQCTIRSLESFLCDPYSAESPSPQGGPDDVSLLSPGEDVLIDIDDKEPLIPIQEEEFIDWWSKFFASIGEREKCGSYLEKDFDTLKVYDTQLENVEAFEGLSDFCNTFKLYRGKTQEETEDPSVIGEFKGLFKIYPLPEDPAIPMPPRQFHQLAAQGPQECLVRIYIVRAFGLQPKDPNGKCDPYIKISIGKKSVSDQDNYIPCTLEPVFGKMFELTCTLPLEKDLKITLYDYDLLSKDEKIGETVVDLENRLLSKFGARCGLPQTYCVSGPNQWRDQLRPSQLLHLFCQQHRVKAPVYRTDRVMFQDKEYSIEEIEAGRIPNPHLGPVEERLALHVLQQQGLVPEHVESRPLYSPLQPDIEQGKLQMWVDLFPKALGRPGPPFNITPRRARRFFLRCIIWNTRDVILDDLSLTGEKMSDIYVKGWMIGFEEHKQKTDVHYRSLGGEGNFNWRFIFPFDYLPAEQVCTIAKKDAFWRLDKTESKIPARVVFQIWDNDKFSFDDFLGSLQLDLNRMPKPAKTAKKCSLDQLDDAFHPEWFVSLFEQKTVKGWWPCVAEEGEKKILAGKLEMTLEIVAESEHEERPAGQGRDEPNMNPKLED
UniProt Q9NZM1, 1-1997: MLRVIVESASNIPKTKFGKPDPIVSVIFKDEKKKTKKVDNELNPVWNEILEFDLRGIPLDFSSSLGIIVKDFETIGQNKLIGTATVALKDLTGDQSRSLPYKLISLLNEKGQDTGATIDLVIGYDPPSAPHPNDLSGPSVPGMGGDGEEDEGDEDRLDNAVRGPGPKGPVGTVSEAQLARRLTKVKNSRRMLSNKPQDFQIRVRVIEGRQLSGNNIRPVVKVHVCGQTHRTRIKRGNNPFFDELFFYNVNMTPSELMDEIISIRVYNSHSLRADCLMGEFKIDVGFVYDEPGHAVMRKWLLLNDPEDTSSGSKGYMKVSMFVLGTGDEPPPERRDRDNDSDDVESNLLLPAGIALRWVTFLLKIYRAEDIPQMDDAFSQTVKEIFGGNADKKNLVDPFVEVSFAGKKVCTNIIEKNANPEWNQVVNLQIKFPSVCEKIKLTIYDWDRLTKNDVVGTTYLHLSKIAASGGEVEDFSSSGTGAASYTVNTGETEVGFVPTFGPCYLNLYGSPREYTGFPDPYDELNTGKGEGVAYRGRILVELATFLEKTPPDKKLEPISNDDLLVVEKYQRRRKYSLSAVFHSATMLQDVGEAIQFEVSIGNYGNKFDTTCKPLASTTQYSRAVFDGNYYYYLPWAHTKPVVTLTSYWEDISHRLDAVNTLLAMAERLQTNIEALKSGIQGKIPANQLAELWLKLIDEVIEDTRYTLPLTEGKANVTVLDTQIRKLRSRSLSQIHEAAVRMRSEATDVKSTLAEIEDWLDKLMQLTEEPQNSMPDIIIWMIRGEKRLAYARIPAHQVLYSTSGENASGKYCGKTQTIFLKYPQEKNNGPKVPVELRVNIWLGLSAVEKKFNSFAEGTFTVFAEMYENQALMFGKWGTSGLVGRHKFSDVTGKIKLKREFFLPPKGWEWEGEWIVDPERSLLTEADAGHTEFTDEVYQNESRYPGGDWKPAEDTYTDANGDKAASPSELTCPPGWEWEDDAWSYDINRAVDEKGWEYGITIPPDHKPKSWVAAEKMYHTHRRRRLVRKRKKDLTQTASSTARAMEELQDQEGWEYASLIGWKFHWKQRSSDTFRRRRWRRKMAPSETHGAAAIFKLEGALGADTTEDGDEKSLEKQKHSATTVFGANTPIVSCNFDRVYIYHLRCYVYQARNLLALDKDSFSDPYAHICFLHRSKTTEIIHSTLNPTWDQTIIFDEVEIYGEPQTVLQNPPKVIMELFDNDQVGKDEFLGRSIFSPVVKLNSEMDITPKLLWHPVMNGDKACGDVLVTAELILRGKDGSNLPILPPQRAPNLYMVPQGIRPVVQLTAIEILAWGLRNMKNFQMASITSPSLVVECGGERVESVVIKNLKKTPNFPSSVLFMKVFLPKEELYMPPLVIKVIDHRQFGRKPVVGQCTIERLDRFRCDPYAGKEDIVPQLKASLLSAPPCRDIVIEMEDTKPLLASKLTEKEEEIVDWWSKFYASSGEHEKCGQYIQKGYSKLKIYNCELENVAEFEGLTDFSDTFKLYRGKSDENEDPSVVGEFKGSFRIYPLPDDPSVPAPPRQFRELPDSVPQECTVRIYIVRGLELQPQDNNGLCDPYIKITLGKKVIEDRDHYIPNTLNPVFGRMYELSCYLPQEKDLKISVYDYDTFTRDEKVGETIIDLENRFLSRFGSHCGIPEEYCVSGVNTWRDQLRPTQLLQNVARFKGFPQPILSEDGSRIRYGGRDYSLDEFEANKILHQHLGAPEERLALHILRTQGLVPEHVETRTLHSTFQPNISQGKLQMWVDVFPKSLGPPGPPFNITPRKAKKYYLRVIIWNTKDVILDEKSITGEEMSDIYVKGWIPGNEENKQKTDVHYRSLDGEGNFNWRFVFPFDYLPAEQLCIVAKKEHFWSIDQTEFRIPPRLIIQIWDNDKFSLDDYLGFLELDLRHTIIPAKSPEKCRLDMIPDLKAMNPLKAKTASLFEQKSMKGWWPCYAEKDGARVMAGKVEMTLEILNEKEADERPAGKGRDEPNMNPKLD

binding [1]	binding [2]	Substance
no binding	–	soluble dysferlin (residues 1-2017) (from UniProt O75923-1 1-2017) (domain or fragment)
–	no binding	soluble myoferlin (residues 1-1997) (from UniProt Q9NZM1-1 1-1997) (domain or fragment)
